From the supplement of paper PMC7666118
The other results are listed elsewhere or left out.

Chains of the proteins cited; added tags and fusions are not shown. Lines headed by an entry give the natural chain unless they say otherwise; changes in a name come on top.
UniProt P27816: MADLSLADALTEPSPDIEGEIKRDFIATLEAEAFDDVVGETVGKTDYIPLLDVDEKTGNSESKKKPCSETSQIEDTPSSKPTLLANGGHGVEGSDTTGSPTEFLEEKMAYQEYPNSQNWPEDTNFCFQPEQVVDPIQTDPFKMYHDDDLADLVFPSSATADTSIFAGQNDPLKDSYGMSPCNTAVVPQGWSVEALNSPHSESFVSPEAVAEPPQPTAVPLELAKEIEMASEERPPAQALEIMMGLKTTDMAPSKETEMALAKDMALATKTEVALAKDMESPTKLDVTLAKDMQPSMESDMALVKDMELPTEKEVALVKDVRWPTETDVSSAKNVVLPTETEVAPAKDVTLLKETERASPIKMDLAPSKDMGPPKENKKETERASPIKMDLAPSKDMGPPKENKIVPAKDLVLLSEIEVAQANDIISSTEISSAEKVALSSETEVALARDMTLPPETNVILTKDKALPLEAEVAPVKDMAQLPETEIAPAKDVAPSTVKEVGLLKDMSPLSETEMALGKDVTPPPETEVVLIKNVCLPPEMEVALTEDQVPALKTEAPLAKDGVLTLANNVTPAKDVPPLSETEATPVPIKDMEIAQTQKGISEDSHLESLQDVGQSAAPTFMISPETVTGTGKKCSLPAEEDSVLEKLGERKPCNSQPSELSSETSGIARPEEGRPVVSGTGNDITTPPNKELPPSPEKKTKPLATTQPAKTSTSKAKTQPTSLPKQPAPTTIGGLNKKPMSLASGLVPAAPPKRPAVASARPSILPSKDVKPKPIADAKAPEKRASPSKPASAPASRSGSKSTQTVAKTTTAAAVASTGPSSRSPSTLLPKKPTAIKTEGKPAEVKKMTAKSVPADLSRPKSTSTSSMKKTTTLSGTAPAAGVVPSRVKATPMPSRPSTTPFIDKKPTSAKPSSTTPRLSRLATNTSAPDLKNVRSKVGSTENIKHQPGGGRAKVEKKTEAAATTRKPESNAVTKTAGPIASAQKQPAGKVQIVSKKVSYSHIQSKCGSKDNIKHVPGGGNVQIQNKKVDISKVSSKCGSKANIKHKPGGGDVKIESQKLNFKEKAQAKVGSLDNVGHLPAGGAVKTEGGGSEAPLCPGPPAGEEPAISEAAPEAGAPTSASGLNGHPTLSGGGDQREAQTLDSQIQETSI
UniProt Q99698: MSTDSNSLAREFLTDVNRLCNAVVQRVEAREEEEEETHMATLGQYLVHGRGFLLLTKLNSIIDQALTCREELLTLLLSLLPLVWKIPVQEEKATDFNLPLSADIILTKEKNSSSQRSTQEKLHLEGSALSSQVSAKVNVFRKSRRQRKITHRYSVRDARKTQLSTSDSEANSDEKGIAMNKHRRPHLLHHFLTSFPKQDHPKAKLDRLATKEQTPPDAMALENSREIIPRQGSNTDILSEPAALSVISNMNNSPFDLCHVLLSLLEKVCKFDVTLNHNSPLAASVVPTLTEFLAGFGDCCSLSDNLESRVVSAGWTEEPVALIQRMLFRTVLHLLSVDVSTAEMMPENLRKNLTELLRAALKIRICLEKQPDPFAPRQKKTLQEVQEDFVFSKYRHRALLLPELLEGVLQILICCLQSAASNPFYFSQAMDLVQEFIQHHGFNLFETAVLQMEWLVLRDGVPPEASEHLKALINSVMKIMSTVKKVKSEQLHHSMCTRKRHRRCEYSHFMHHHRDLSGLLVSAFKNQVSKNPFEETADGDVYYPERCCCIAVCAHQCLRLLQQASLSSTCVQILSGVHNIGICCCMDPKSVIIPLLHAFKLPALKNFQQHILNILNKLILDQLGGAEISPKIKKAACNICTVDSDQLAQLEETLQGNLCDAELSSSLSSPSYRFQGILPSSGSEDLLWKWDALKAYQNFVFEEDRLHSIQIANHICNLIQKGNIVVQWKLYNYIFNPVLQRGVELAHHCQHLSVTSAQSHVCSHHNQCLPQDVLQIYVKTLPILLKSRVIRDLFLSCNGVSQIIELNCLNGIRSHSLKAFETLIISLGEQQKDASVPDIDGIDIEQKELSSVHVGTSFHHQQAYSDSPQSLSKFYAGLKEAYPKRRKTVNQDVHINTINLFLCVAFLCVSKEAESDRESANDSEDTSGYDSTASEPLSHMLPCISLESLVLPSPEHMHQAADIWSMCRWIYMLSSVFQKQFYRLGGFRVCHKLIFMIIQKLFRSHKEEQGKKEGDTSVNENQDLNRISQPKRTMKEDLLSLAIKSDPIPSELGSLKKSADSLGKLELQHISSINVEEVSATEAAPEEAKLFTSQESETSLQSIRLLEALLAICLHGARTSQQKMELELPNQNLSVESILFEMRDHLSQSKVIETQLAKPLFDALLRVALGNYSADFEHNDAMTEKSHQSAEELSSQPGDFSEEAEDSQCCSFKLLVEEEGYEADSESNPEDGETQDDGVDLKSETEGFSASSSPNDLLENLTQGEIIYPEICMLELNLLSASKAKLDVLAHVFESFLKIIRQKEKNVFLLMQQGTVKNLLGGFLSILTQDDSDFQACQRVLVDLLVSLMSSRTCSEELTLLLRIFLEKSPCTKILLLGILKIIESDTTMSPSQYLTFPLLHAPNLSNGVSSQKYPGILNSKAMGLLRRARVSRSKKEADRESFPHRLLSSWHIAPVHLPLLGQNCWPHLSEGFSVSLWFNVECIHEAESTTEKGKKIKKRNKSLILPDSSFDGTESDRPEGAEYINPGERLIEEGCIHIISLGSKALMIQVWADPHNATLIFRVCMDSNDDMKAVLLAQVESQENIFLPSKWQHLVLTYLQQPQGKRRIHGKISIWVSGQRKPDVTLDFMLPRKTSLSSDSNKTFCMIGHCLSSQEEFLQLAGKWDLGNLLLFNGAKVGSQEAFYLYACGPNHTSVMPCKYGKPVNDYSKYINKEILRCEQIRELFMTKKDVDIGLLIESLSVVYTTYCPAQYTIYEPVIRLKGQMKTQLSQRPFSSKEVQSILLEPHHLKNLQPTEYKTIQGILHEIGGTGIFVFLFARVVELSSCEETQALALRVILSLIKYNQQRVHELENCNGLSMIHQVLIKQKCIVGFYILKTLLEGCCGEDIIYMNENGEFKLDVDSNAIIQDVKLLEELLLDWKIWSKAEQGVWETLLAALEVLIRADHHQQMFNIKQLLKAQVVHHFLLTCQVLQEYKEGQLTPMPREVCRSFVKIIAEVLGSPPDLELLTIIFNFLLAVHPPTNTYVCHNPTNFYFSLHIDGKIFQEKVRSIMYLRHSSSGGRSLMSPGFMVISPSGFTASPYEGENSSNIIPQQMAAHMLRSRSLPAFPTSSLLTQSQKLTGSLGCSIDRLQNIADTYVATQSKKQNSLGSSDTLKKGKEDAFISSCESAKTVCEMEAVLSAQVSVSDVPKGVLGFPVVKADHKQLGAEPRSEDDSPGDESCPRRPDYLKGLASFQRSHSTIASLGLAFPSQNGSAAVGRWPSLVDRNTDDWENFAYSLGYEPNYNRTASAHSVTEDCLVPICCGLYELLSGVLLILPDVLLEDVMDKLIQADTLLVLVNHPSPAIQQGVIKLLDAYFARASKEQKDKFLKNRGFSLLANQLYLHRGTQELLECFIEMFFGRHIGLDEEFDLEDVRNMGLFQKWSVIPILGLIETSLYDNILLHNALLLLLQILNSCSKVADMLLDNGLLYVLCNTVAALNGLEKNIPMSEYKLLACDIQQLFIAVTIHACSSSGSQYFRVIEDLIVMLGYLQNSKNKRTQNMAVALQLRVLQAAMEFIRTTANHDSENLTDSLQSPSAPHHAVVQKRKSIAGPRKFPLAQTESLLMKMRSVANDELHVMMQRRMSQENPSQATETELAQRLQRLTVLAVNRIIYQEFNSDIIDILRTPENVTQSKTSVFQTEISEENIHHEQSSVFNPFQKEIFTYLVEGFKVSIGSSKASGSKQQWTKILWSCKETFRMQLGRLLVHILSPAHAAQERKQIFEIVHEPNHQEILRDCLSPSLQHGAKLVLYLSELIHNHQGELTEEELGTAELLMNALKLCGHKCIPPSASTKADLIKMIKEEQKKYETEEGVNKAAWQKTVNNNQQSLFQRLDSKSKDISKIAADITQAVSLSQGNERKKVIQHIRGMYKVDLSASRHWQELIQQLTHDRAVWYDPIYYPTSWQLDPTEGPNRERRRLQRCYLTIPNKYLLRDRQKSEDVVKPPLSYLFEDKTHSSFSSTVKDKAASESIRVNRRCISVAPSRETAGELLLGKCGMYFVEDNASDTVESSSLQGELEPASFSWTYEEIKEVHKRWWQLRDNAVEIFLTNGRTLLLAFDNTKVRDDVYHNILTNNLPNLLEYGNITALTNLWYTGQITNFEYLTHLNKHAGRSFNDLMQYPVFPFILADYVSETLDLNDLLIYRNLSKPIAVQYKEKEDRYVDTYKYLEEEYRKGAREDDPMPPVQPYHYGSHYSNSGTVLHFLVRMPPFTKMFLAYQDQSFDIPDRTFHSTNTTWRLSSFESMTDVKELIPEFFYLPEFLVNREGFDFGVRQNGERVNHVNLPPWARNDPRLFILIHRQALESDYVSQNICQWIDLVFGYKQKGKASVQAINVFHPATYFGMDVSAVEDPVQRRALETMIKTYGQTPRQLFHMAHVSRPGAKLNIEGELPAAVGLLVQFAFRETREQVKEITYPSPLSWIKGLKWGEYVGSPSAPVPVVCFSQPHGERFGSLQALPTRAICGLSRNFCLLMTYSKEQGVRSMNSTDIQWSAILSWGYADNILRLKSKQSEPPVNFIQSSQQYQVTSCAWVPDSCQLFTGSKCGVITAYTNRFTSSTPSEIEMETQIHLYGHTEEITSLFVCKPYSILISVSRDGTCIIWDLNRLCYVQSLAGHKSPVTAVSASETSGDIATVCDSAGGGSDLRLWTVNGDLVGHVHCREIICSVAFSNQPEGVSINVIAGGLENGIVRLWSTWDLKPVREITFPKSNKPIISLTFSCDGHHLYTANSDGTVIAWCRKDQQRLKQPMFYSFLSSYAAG
UniProt Q8WZA0: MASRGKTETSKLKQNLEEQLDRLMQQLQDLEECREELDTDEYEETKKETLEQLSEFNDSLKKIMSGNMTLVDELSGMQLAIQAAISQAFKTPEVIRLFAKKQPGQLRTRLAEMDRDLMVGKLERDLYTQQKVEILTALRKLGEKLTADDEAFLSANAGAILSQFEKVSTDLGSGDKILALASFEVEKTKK
UniProt Q5VWZ2: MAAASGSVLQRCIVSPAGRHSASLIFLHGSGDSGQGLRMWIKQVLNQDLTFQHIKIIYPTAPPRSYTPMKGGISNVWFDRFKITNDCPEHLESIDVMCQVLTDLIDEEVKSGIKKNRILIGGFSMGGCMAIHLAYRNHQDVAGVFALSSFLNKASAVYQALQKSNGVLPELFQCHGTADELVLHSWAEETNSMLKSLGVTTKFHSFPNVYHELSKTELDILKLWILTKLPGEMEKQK
UniProt P41214: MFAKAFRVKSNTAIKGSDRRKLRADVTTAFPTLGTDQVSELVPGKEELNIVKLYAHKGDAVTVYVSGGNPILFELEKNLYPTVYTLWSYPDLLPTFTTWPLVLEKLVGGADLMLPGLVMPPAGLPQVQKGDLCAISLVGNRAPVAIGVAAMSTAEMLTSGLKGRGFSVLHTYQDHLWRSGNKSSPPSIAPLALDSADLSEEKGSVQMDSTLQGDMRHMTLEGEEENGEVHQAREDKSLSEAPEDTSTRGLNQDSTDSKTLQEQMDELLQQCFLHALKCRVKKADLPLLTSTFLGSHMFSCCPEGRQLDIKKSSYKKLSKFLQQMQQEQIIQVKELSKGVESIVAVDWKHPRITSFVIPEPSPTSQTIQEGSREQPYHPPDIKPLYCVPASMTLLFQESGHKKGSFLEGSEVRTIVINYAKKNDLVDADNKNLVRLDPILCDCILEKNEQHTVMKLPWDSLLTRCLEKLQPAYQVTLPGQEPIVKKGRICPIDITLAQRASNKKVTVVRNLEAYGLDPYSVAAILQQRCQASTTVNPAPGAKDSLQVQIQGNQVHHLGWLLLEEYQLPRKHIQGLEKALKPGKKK
UniProt Q8NDC0: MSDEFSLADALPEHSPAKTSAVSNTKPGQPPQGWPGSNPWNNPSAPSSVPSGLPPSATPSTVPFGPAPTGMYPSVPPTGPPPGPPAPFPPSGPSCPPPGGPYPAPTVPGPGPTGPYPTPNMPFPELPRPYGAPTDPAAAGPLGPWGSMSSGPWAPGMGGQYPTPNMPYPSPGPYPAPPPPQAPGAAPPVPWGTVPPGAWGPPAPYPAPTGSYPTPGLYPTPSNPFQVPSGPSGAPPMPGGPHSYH
UniProt P28482, whole entry: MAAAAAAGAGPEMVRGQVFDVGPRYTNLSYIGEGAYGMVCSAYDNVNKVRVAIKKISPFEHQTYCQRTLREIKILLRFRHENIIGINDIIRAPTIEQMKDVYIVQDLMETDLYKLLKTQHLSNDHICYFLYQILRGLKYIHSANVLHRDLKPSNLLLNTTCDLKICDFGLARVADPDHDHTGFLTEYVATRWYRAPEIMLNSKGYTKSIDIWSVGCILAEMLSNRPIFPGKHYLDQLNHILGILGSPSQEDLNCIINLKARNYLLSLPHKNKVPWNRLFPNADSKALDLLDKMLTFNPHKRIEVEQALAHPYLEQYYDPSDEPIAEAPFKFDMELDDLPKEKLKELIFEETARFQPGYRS

These targets were tested with COc1ccc(Cn2ccc3cc(C)c(C(=O)NO)cc32)cc1 (assay: dose-dependent thermal stabilisation call (2D-TPP, DLPTP, 10% FDR) (binary (1 = stabilised)); higher = stabilised by the compound). Settings: system: HL-60 intact cells; concentration range 0.04-10 µM.
Method: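 2D thermal proteome profiling in intact HL-60 cells treated with BRD-3811 (0, 0.04, 0.29, 2, 10 uM) for 90 min at 37 C, then heated 3 min at one of 12 temperatures (42-63.9 C). Soluble protein was quantified by TMT10 MS. The value is the DLPTP call of the paper: dose-dependent thermal stabilisation over all temperatures at 10% FDR (F-test of a dose-response against a flat model); one experiment, one call per tested protein.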

Target	dose-dependent thermal stabilisation call
MARCKS (UniProt P29966)	inactive: 0
LDB1 (UniProt Q86U70)	inactive: 0
LOC550643	inactive: 0
MAP4 (UniProt P27816)	inactive: 0
LYST (UniProt Q99698)	inactive: 0
LGALS1 (UniProt P09382)	inactive: 0
LTA4H (UniProt P09960)	inactive: 0
M6PRBP1 (UniProt O60664)	inactive: 0
MADD (UniProt Q8WXG6)	inactive: 0
LASS6 (UniProt Q6ZMG9)	inactive: 0
LIMA1 (UniProt Q9UHB6)	inactive: 0
LMAN1 (UniProt P49257)	inactive: 0
KTELC1 (UniProt Q8NBL1)	inactive: 0
MAN1A2 (UniProt O60476)	inactive: 0
LRRFIP2 (UniProt Q9Y608)	inactive: 0
LUC7L (UniProt Q9NQ29)	inactive: 0
MAP4K2 (UniProt Q12851)	inactive: 0
LSM12 (UniProt Q3MHD2)	inactive: 0
LCP1 (UniProt P13796)	inactive: 0
LYRM7 (UniProt Q5U5X0)	inactive: 0

Some values from the entries so far:
In dose-dependent thermal stabilisation call, MAN1A2 (UniProt O60476) has the entry inactive: 0
In dose-dependent thermal stabilisation call, LRRFIP2 (UniProt Q9Y608) has the entry inactive: 0

(list continues)

Target	dose-dependent thermal stabilisation call
LZIC (UniProt Q8WZA0)	inactive: 0
LYPLAL1 (UniProt Q5VWZ2)	inactive: 0
LOC388474	inactive: 0
MCCC1 (UniProt Q96RQ3)	inactive: 0
LRRC8D (UniProt Q7L1W4)	inactive: 0
LRCH4 (UniProt O75427)	inactive: 0
MAPK12 (UniProt P53778)	inactive: 0
MBIP (UniProt Q9NS73)	inactive: 0
LARS2 (UniProt Q15031)	inactive: 0
LRFN4 (UniProt Q6PJG9)	inactive: 0
LGTN (UniProt P41214)	inactive: 0
LPGAT1 (UniProt Q92604)	inactive: 0
MCEE (UniProt Q96PE7)	inactive: 0
MAN1C1 (UniProt Q9NR34)	inactive: 0
MAPK1IP1L (UniProt Q8NDC0)	inactive: 0
MAPK1 (UniProt P28482)	active: 1
LMBR1 (UniProt Q8WVP7)	inactive: 0
MACC1 (UniProt Q6ZN28)	inactive: 0
LOC653156	inactive: 0
LOC90379	inactive: 0
